# These are yes or no findings as the source states them, for the method shown. Some entries that bind do so weakly or less than the wild type.
# Protein sequences, listed by entry. Tags and fused reporters are not part of them. Lines headed by an entry give the natural chain unless they say otherwise; changes in a name come on top.
# UniProt P55735: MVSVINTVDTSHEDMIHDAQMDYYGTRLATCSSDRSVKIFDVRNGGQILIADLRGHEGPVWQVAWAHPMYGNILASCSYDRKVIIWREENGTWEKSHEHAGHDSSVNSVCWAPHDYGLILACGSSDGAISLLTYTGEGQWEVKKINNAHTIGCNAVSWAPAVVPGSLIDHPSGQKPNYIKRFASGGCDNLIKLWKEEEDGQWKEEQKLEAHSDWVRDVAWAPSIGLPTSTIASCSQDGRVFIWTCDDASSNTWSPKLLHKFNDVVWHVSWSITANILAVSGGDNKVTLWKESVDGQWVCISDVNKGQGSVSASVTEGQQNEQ
# Molecular target: Sec13/31 dimer of the COPII cage (UniProt P55735)
# Assay: cryo-EM structure; native (unfixed) COPII cages, previously published micrographs (ref. 13); octahedral reconstruction, then localized reconstruction of the Sec13/31 vertices
substance,measurement,value
Sec13/31 dimer of the COPII cage (from UniProt P55735 1-322; O94979 1-1220) (complex),binding,binds
